Experimental data published in PubChem BioAssay AID445 (National Center for Advancing Translational Sciences (NCATS), 2006).
This is one part of the list. The main result of the screen is listed elsewhere. These columns were measured beside it and carry no call. Most of these compounds were active or inconclusive in the main read-out, so they are no random draw. Words in brackets tell the shape of the fitted curve; partial curves, single points and poor fits give uncertain potencies.

Experiment: IkB Signaling
Settings: ABC-DLBCL IkBa-CBG/CBR dual luciferase ratio (green luciferase fused to IkBa over red control in OCI-Ly3 lymphoma cells), 4 h; measured here: control luc red channel unless noted
How it was run: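 In this assay, an IκBα–CBG68 fusion accumulates when IKK-driven degradation is blocked; native CBR normalizes for cell number. OCI-Ly3 cells were treated 4 h with compound and doxycycline, then green and red light read after Chroma-Glo addition.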

Row | Compound | AC50
1 | COc1cc(OC)c(NC(=O)NC(C)c2c(-n3cccc3)sc(C)c2C)cc1Cl (configuration not stated) | 20 µM [falling, partial curve, poor fit]
2 | Cc1ccc2cccc(NC(=O)c3ccc(-c4cccc([N+](=O)[O-])c4)o3)c2n1 | 5.01 µM [falling, full curve]
3 | CCCCNC(=O)CSc1nc2nc(C)c(Cc3ccccc3C)c(C)n2n1 | 20 µM [falling, single point]
4 | COc1cccc(C(=O)Nc2cc(-c3ccccc3)no2)c1 | 7.94 µM [falling, partial curve]
5 | Cc1c(-c2nc(N)nc(Nc3ccccc3)n2)oc2ccccc12 | 0.00631 µM [falling, full curve, poor fit]
6 | c1ccc2[nH]c(CSc3ncnc4c3oc3ccccc34)nc2c1 | 10 µM [falling, partial curve]
7 | COc1ccc(/C=C/c2nc(C#N)c(NCCc3ccc(OC)c(OC)c3)o2)cc1OC | 15.8 µM [falling, single point]
8 | O=C(NCc1ccccc1)c1ccc2c(c1)CCN2S(=O)(=O)c1ccccc1 | 15.8 µM [falling, single point]
9 | CCC(=O)Nc1ccc(-c2nnc3c4ccccc4c(C)nn23)cc1 | 15.8 µM [rising, single point]
10 | Cc1ccc(NC(=O)CSc2nc(=O)n(CCCN(C)C)c3c2CCC3)cc1F | 7.94 µM [rising, partial curve]
11 | CCCCC(CC)CNC(=O)C1CCC(CNS(=O)(=O)c2cccc3nsnc23)CC1 (configuration not stated) | 5.01 µM [falling, partial curve]
12 | Cc1cc(C)cc(OCCCn2c(CCNC(=O)C3CCCCC3)nc3ccccc32)c1 | 15.8 µM [falling, partial curve]
13 | CC1CCN(S(=O)(=O)c2ccc(C(=O)Nc3sc4c(c3C(N)=O)CC(C)(C)NC4(C)C)cc2)CC1 | 0.0398 µM [falling, full curve, poor fit]
14 | Cc1cccc(C)c1-n1ncc(C(=O)N2CCN(c3ccccn3)CC2)c1C1CCN(C(=O)OC(C)(C)C)CC1 | 15.8 µM [falling, partial curve]
15 | COC(=O)CN1C(=O)COc2ccc(Cl)cc21 | 10 µM [falling, partial curve]
16 | COc1ccccc1NC(=O)N1CCc2[nH]c3ccc(Cl)cc3c2C1 | 3.98 µM [falling, partial curve]
17 | O=C(Nc1ccc2c(c1)OCCO2)c1ccc(S(=O)(=O)N2CCCCC2)cc1 | 31.6 µM [falling, single point]
18 | COc1cc(OC)c(NC(=O)NCc2ccc3c(c2)CCN3C(=O)c2ccccc2)cc1Cl | 2 µM [falling, full curve]
19 | Nc1nnc(SCC(=O)Nc2ccc(F)c(Cl)c2)n1-c1ccccc1 | 15.8 µM [falling, partial curve]
20 | CCc1ccccc1NC(=O)CSc1nc(-c2ccccc2OC)nc2c1Cc1c(CO)cnc(C)c1O2 | 3.16 µM [falling, full curve, poor fit]
21 | CC(=O)c1cc(C(=O)Nc2cc(C)cc(C)c2)c2ccccn12 | 20 µM [falling, partial curve, poor fit]

Row | Compound | AC50
22 | Cc1ccc2c(c1)cc1c(=O)n(CC(=O)NC3CCCCC3)nc(C)n12 | 25.1 µM [falling, partial curve]
23 | O=C(CCSc1nc(-c2ccco2)cc(C(F)(F)F)n1)N1CCN(c2ccccn2)CC1 | 10 µM [falling, partial curve]
24 | Cc1cccn2c(=O)c3cc(C(=O)NCc4ccccc4)c(=N)n(CCOCCO)c3nc12 | 25.1 µM [falling, partial curve]
25 | O=C(Cn1cc(SCc2ccc(C(F)(F)F)cc2)c2ccccc21)N1CCCC1 | 20 µM [falling, partial curve]
26 | CCOC(=O)N1CCC(NC(=O)c2cnn(-c3cccc(Cl)c3C)c2C2CCN(C(=O)OC(C)(C)C)CC2)CC1 | 39.8 µM [falling, single point]
27 | COc1cccc(CN2CCc3nc(N4CCN(c5ncccn5)CC4)ncc3C2)c1 | 31.6 µM [falling, single point]
28 | CSC1=C(C#N)C(c2ccc(Cl)cc2)C2=C(CC(C)(C)CC2=O)N1 (configuration not stated) | 5.01 µM [falling, partial curve]
29 | COc1cc(S(=O)(=O)N2CCN(Cc3ccccc3)CC2)ccc1Br | 20 µM [falling, partial curve]
30 | CC(=O)c1ccc(NC(=O)CSc2cn(CC(=O)N3CCCCCC3)c3ccccc23)cc1 | 12.6 µM [falling, partial curve]
31 | COc1ccc(-c2cc(C(=O)NCc3ccc(F)cc3)c3c(-c4ccc(F)cc4)[nH]nc3n2)cc1OC | 25.1 µM [falling, partial curve]
32 | COc1ccc(NC(=O)CSc2oc(-c3ccco3)nc2S(=O)(=O)c2ccc(Br)cc2)c(OC)c1 | 12.6 µM [falling, partial curve]
33 | CCc1ccc2oc(-c3cc(NC(=O)C(C)C)cc(C)c3O)nc2c1 | 15.8 µM [falling, partial curve]
34 | CCn1ccc2cc(S(=O)(=O)N3CCC(C(=O)NCCc4ccc(C)cc4)CC3)ccc21 | 15.8 µM [falling, partial curve]
35 | CCOC(=O)Cc1ccc(NS(=O)(=O)c2ccc(SC)cc2)cc1 | 10 µM [falling, partial curve]
36 | CCC(C)NC(=O)c1ccc2nc(Cc3ccc(OC)cc3)oc2c1 (configuration not stated) | 0.1 µM [rising, full curve]
37 | COc1cc(OC)cc(C(=O)NCC(c2cccs2)S(=O)(=O)c2ccc(F)c(C)c2)c1 (configuration not stated) | 39.8 µM [falling, single point]
38 | COc1ccccc1NC(=O)CN1C(=O)C2(SCC(=O)N2c2ccc(C)c(C)c2)c2ccccc21 (configuration not stated) | 2.51 µM [falling, full curve]
39 | NS(=O)(=O)c1ccc(NC(=O)c2ccc3c(c2)CCN3S(=O)(=O)c2ccccc2)cc1 | 25.1 µM [falling, single point]
40 | Cc1ccc(NC(=O)C(=O)NCC(c2cccnc2)N2CCN(C)CC2)cc1F (configuration not stated) | 39.8 µM [falling, single point]
41 | CCOc1ccc(NC(=O)Cn2ccn(-c3ccc(F)c(F)c3)c(=O)c2=O)cc1 | 39.8 µM [falling, single point]
42 | COc1cccc(C(=O)Nc2ccc(-c3cn4cccnc4n3)cc2)c1OC | 2.51 µM [rising, partial curve]

A second format for three compounds above:
Cc1ccc(NC(=O)C(=O)NCC(c2cccnc2)N2CCN(C)CC2)cc1F (configuration not stated)
  AC50: 39.8 µM [falling, single point]
CCOc1ccc(NC(=O)Cn2ccn(-c3ccc(F)c(F)c3)c(=O)c2=O)cc1
  AC50: 39.8 µM [falling, single point]
COc1cccc(C(=O)Nc2ccc(-c3cn4cccnc4n3)cc2)c1OC
  AC50: 2.51 µM [rising, partial curve]

Additional records

Row | Compound | AC50
43 | COc1cc2ccccc2cc1C(=O)Nc1ccc(Cl)c(-c2nc3ccccc3o2)c1 | 15.8 µM [falling, single point]
44 | Cc1ccc(N2C(=O)c3[nH]nc(-c4ccc(Cl)cc4)c3C2c2ccc(F)cc2)cc1 (configuration not stated) | 25.1 µM [falling, partial curve]
45 | CCOc1cc(NS(C)(=O)=O)c(OCC)cc1NC(=O)c1cccs1 | 25.1 µM [falling, partial curve, poor fit]
46 | c1ccc(CCCc2nc(-c3ccccn3)no2)cc1 | 15.8 µM [falling, single point]
47 | Cc1cc2ncn(C(=O)c3c(-c4c(Cl)cccc4Cl)noc3C)c2cc1C | 15.8 µM [rising, partial curve] [measured here: IkB-luc green channel]
48 | COc1ccc(CNC(=O)c2cc3c(s2)-c2ccccc2OC3)cc1 | 1.58 µM [falling, full curve]
49 | CCC(C)NC(=O)C(=O)Nc1c2c(nn1-c1ccccc1)CS(=O)(=O)C2 (configuration not stated) | 20 µM [rising, partial curve]
50 | O=C(c1ccc2c(c1)N(Cc1ccc(Cl)cc1)C(=O)c1ccccc1S2(=O)=O)N1CCCCC1 | 25.1 µM [falling, single point]
51 | CC(C)c1ccc(C2N=C(N)Nc3nc4ccccc4n32)cc1 (configuration not stated) | 15.8 µM [falling, single point]
52 | Cc1c(Cl)cccc1NC(=O)C(C)n1nnc2sc3c(c2c1=O)CCCC3 (configuration not stated) | 1 µM [falling, full curve]
53 | Cc1c(C)n(C)c2ccc(C(=O)N3CCN(c4ccccc4)CC3)cc12 | 25.1 µM [falling, partial curve]
54 | CSc1ncc(Cl)c(C(=O)N(Cc2ccc(N(C)C)cc2)Cc2ccco2)n1 | 31.6 µM [falling, single point]
55 | Cc1cc(C)cc(NC(=O)Cn2c(=O)c3ccccc3n3nncc23)c1 | 25.1 µM [falling, partial curve]
56 | Cc1ccc2c(=O)cc(C(=O)Nc3ccc(S(=O)(=O)N4CCCCCC4)cc3)oc2c1C | 15.8 µM [falling, single point]
57 | CCCCOc1ccc(CNC(=O)CCCN2C(=O)CSc3c2c(C)nn3-c2ccccc2)cc1 | 25.1 µM [falling, single point]
58 | CCOC(=O)c1ccccc1NC(=O)c1sc2nc3n(c(=O)c2c1C)CCCC3 | 25.1 µM [falling, single point]
59 | CC(C)CNC(=O)c1cc(-c2ccco2)on1 | 5.01 µM [falling, partial curve]
60 | Cc1noc(/C=C/N(C)C)c1S(=O)(=O)N1CCCC(C(=O)Nc2ccc3c(c2)OCO3)C1 (configuration not stated) | 25.1 µM [falling, partial curve]
61 | Cc1cccc(C2CC(=O)Oc3c2c(=O)n(C)c2ccccc32)c1 (configuration not stated) | 39.8 µM [falling, single point]
62 | O=C(Cn1c(=O)nc(-c2ccccc2)c2ccccc21)NCc1ccc(F)cc1 | 20 µM [falling, partial curve]
